Results from patent US20240076361A1.
No constants are given. Whether binding was seen depends on the method and setting. Some results given as binding are weak or reduced against the parent protein; the word gives no strength.

Sequences of proteins named here, by UniProt entry; tags and fusion partners are left off. A change or cut given only in a name is not applied to a line headed by its entry. A line that says so, or that is headed by a name, gives the form on record, which may keep a tag or linker.
Tau from human non-AD control brain lysate (Braak stage I) (P10636, form named): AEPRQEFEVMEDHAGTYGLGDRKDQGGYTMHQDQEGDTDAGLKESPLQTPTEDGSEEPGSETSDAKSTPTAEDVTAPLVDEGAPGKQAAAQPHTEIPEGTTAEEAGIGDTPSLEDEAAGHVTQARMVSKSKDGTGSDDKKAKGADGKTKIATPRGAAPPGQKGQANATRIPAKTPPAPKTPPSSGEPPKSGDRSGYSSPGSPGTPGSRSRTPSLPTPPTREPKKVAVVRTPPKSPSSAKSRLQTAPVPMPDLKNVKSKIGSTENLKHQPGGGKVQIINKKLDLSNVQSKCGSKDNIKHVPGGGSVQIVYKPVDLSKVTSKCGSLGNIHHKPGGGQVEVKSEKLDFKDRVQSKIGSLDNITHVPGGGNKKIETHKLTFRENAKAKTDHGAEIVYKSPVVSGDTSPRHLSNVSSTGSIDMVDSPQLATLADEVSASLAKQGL

Target: Tau from human non-AD control brain lysate (Braak stage I) (human) (UniProt P10636)
Test: Western blot; 10 microgram brain lysate per lane, antibody 0.5 microgram/mL

Row | Binder | binding
1 | 5F6-4B4 (antibody, mouse IgG2b, kappa, V domains shown) VH: EVQLVESGGGLVKPGGSLKLSCVASGFSVSDYGIHWVRQAPEKGLEWVAYISSGSNTIYYIDTVKGRFTISRDNAKNTLFLQMTSLRSEDTAMYYCARRMAYWGQGTLVTVSA VL: QIVLTQSPAIMSTSPGEKVTMTCSASSSVSSMYWYQQKPGSSPRLLIYATFNLASGVPVRFSGSGSGTSYSLTISRMEAEDAATYYCQQWSSYPLTFGAGTKLEVKR | binds
2 | 5F6-4D1 (antibody, mouse IgG2b, kappa, V domains shown) VH: EVQLVESGGGLVKPGGSLKLSCVASGFSVSDYGIHWVRQAPEKGLEWVAYISSGSNTIYYIDTVKGRFTISRDNAKNTLFLQMTSLRSEDTAMYYCARRMAYWGQGTLVTVSA VL: QIVLTQSPAIMSTSPGEKVTMTCSASSSVSSMYWYQQKPGSSPRLLIYATFNLASGVPVRFSGSGSGTSYSLTISRMEAEDAATYYCQQWSSYPLTFGAGTKLEVKR | binds
